Results are percentages, as filed.
The controls that fix the scale are not given in the record; negative values are as filed.
The compounds are a random part of those screened.
A dash means the value is not listed here; it may have been measured.

By UniProt entry, the sequences of proteins in these tests, tags left out.
UniProt E9BF75, entry or part of it: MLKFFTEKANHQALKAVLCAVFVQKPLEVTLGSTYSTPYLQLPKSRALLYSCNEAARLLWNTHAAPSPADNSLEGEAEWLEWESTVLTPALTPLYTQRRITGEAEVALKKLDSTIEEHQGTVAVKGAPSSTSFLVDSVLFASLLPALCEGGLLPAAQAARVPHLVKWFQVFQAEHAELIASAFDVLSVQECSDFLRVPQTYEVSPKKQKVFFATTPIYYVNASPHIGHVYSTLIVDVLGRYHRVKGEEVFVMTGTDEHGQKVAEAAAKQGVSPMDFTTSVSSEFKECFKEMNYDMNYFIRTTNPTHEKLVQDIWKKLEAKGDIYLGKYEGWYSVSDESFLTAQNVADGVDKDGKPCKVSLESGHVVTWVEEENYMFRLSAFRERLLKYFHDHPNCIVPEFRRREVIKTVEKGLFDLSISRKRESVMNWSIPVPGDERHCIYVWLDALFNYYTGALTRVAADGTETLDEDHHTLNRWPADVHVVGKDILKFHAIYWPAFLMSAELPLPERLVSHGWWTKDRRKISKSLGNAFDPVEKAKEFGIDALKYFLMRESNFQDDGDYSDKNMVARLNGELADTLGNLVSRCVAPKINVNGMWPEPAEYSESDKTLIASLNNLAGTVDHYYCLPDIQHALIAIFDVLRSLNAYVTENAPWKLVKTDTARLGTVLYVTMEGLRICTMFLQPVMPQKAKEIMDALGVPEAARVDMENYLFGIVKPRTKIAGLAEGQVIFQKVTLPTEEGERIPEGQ

A: 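Assay on Mycobacterium tuberculosis, filed only as a heat shock assay from Cornell; the read-out is not stated. The concentration is filed as 10 mM, unlikely as a test dose, so the dose is not known. Direction is inferred from retests: higher values go with stronger inhibition. Of about 69,000 compounds tested this way, about 930 (1.4%) reached 50% or more in at least one test.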
B: 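Methionyl-tRNA synthetase (putative), Leishmania donovani (UniProt E9BF75). Primary screen of methionyl-tRNA synthetase; the read-out is not stated. The test concentration is not given. The values are filed as inhibition. About 68,000 compounds were tested under these conditions; 0.035% (about 24) showed 50% or more at least once.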
C: 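Whole-cell assay for inhibitors of Mycobacterium tuberculosis growth, labelled Cornell in the record; the read-out is not stated. The concentration is filed as 10 mM, unlikely as a test dose, so the dose is not known. The record gives no direction; compounds strong in two other growth screens of this library score well above the rest, so higher reads as stronger inhibition. Size under these conditions: about 53,000 compounds, about 900 of them at 50% or above in at least one test.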

Compound,A,B,C
COCc1ncn2c1CN(C(=O)c1ccc3ccccc3n1)CC2,-,3.553%,-
O=C(NC1CCCN(c2ccc(OC(F)F)cc2)C1)c1cc[nH]n1 (centres undefined),10.35%,16.67%,22.99%
[H][C@]12CNC[C@@]1(C(=O)NCCCOc1cccnc1)CN(C(C)=O)C2,-44.26%,-,-10.09%
FC(F)(F)c1ccc(-c2noc3c2CN(CC2CCCO2)CC3)cc1 (centres undefined),46.47%,23.81%,29.06%
c1cnc(N2CCC3(CCCN(CC4CC4)C3)CC2)nc1,-,5.625%,-
CCOC(=O)CC1CCCCN1C(=O)c1cc(=O)[nH]c(=O)[nH]1 (centres undefined),-19.39%,2.857%,6.286%
CCC(C)(C)NC(=O)COC(=O)c1cc(C)ccc1NC(=O)N(C)C,1.908%,7.216%,-
COc1cccc(OCc2cc(C(=O)NC[C@@H]3CCCN3)n[nH]2)c1,-17.12%,7.116%,-13.96%
CO[C@@H]1CCN(C(=O)c2ccccn2)[C@H]1Cc1ccccc1.O=C(O)C(F)(F)F,-24.72%,-,20.31%
COc1ncccc1NC(=O)N(Cc1ccccn1)C1CC1,-9.42%,18.75%,-
CCS(=O)(=O)NCCNc1cc(-n2cccc2)ncn1,-8.957%,13.67%,13.54%
CN(C)CCCNC(=O)c1cc(-c2ccc3c(c2)CCO3)n[nH]1,-15.52%,8.788%,-25.72%
CC1(C)CC(N(Cc2cccnc2)Cc2cccnc2)CC(C)(C)N1.O=C(O)CC(O)(CC(=O)O)C(=O)O,-21.9%,-,-
COCC(=O)N1CCn2c(COc3cccnc3)cnc2C1C (centres undefined),-,10.09%,-
[H][C@@]12COC[C@@H](Cc3nc(C)no3)[C@]1([H])CN(S(=O)(=O)C1CC1)C2,10.32%,-,-15.84%
Cc1nn(C)c(Cl)c1C1CCCN1Cc1nc(C2CC2)no1 (centres undefined),-8.552%,14.29%,-7.379%
CCCOc1c(Cl)cc(C(=O)N2CCOC23CCN(C)CC3)cc1Cl,13.85%,0.2584%,0.6059%
NC(=O)c1cnn2c1NCC(CNCC1(c3ccccc3)CCCC1)C2 (centres undefined),21.54%,14.71%,2.23%
CN(Cc1noc(-c2ccccc2)n1)C(=O)CSc1nnc(N)s1,9.284%,0.6349%,-22.54%
Cc1nc2n(n1)CC(Nc1nc(C(F)(F)F)nc3ccccc13)CC2 (centres undefined),-2.093%,4.237%,15.57%
[H][C@@]12CCN(Cc3ccco3)C[C@@]1([H])O[C@H](c1ccnc(C(C)C)n1)C2,-21.66%,-,-76.13%
Cc1ccc(CN2Cc3cnn(C)c3C(COCC3CC3)C2)o1 (centres undefined),6.099%,23.17%,39.26%
Cc1nnc(NCc2ccc(F)cc2)o1,9.794%,3.141%,29.35%
CC(C)c1nc(C2CCCN(c3ncccn3)C2)no1 (centres undefined),-4.414%,6.044%,-
COCCN1CCC(Nc2ccc(C#N)cc2F)CC1,19.36%,12.18%,-
Cc1cc(CC(C)NC2CCSCC2)[nH]n1 (centres undefined),-0.8555%,10.23%,-3.032%
CC(C)c1ncncc1C(=O)NCCN1CCOCC1,-20.7%,-5.211%,5.998%
[H][C@]12CC[C@]([H])(CN(Cc3ccccc3OC(F)F)C1)N(CC1CC1)C2=O,4.172%,-,-
CC(C)CNC(=O)c1sccc1-n1cnnn1,5.214%,13.01%,-14.46%
CCOc1ncnc2c1CCN(C(=O)NCc1cccnc1)CC2.O=C(O)C(F)(F)F,-25.12%,-,-0.04775%
O=C(C1NCCc2[nH]cnc21)N1CCC2(CC1)CNc1ccccc12 (centres undefined),80.65%,5.627%,1.702%
Cc1csc(N2CCN(CCc3ccccn3)CC2C)n1 (centres undefined),19.82%,9.36%,18.22%
CC(C)(C)c1nc(CN2CCC(c3nc4cc(Cl)ccc4o3)CC2)no1,-3.238%,4.71%,-
Cc1cc(C2CCC2)nc(N2CCN(Cc3nccn3C)CC2)n1,4.484%,19.85%,-27.4%
CCC(=O)N1CCC(n2cc(C(C)(C)O)nn2)CC1,-12.55%,16.08%,2.33%
COCc1cc(C[C@@H]2CC[C@H](O)[C@@H](CNCC(C)C)O2)no1,0.06227%,6.767%,-13.86%
Cc1nc(C2CCCN2C(=O)c2csc3c2CCCC3)no1 (centres undefined),-8.395%,14.53%,-
O=C(O)C(F)(F)F.[H][C@]12CCC[C@@]1(COc1ccccn1)CN(C(=O)c1c(C)noc1C)C2,-2.448%,-,3.076%
[H][C@@]12OCCN(C(=O)COC)[C@@]1([H])CC[C@H]2OC,-1.552%,-,0.844%
COCCn1c2c(ccc1=O)CC(NC(=O)c1cscn1)CC2 (centres undefined),7.735%,10.08%,-27.78%
CNC(=O)NCC1CCC2(CCN(C(=O)c3cccnc3)CC2)CO1 (centres undefined),-,20.67%,-
Cc1n[nH]c(C)c1S(=O)(=O)N1CCC(Oc2cnccn2)CC1,7.995%,14.17%,6.999%
COC(C)c1nc(CN2CCNCC2)cs1 (centres undefined),-29.23%,11.04%,-7.484%
COc1ccccc1C1CNC(=O)c2nc(-c3ncc[nH]3)[nH]c2C1 (centres undefined),4.706%,16.3%,-
Cn1ncc2c(=O)[nH]c(CN3CCCC3c3cccc(F)c3)nc21 (centres undefined),-15.45%,23.46%,-
NC(=O)c1cc(C2CCCN(CCc3ccccn3)C2)n[nH]1 (centres undefined),-1.065%,3.067%,9.456%
COc1ccc(C2CCN(CCCC#N)CC2)cc1,-14.33%,11.15%,-
CCn1cnnc1CNC(=O)N1CCN(c2cccs2)CC1,-32.37%,9.312%,-10.74%

Measurements from “University of Dundee, Small-Polar-MMV Screening Library” (2021), ChEMBL document CHEMBL3988442.